Reference: US9126994B2, “Crystalline form of a quinolinone-carboxamide compound” (Theravance Biopharma R&D IP, LLC, priority 2005, dated 2015)

Amino acid sequences for entries named in this document (tags omitted). A change or cut given only in a name is not applied to a line headed by its entry.
UniProt Q12809: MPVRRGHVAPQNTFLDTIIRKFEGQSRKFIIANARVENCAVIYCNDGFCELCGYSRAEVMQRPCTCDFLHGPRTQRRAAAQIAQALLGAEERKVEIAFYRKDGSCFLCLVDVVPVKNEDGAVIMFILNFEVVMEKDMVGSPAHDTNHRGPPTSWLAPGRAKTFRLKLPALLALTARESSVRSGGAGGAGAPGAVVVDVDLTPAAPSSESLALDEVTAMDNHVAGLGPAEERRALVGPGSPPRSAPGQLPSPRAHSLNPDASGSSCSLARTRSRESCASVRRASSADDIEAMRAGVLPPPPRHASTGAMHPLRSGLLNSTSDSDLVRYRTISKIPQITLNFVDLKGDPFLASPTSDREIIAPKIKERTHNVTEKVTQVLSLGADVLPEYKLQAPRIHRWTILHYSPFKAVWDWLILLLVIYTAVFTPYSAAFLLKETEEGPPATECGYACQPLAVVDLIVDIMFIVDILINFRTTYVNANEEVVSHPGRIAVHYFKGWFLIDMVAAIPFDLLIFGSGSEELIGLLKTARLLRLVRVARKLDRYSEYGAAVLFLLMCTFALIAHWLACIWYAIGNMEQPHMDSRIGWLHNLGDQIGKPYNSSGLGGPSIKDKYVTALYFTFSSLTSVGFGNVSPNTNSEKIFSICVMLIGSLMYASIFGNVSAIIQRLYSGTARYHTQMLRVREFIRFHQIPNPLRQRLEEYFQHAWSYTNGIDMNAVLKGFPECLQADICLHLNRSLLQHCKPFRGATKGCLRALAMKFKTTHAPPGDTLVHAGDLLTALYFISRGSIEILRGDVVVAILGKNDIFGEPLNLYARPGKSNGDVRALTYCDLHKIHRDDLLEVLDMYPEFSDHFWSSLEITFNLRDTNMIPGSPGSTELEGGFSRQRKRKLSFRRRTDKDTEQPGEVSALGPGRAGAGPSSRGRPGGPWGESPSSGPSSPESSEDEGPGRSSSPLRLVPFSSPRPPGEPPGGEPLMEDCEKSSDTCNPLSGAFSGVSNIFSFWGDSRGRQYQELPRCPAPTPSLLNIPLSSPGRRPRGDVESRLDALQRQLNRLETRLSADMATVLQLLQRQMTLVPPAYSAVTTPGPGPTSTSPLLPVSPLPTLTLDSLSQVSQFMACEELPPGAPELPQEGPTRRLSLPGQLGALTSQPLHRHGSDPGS

Experiments:
Caco-2 cell monolayer = settings: human, Caco-2, 1 h
[1] = molecular target: hERG cardiac potassium channel (Homo sapiens, UniProt Q12809); assay: in vitro; settings: pH 7.4
[2] = male Sprague-Dawley rats; blood plasma; dosing PO 5 mg/kg (IV 2.5 mg/kg), route not restated at the value
Description: Assay 6: Pharmacokinetic Study in the Rat
Aqueous solution formulations of test compounds were prepared in 0.1% lactic acid at a pH of between about 5 and about 6. Male Sprague-Dawley rats (CD strain, Charles River Laboratories, Wilmington, Mass.) were dosed with test compounds via intravenous administration (IV) at a dose of 2.5 mg/kg or by oral gavage (PO) at a dose of 5 mg/kg. The dosing volume was 1 mL/kg for IV and 2 mL/kg for PO administration. Serial blood samples were collected from animals pre-dose, and at 2 (IV only), 5, 15, and 30 min, and at 1, 2, 4, 8, and 24 hours post-dose.
Standard pharmacokinetic parameters were assessed by non-compartmental analysis (Model 201 for IV and Model 200 for PO) using WinNonlin (Version 4.0.1, Pharsight, Mountain View, Calif.). The maximum in the curve of test compound concentration in blood plasma vs. time is denoted Cmax.

CC(C)n1c(=O)c(C(=O)N[C@H]2C[C@H]3CC[C@@H](C2)N3C[C@@H](O)CN(C)S(C)(=O)=O)cc2ccccc21 [compound of formula I, 1-isopropyl-2-oxo-1,2-dihydroquinoline-3-carboxylic acid {(1S,3R,5R)-8-[(R)-2-hydroxy-3-(methanesulfonyl-methyl-amino)propyl]-8-azabicyclo[3.2.1]oct-3-yl}amide]
permeation coefficient Kp (Caco-2 cell monolayer): greater than 20×10^−6 cm/sec | inhibition at 3 µM [1]: < 15% | AUC(0−t) [2]: 460 ng·h/mL
